# Results reported in paper doi:10.1101/361097.
# The exact form of at least one protein or probe is not confirmed. For some of these results: Weaker means in comparison with the reference protein, sequence or condition of that experiment. At least one verdict rests on a figure or table, not on a statement of the authors.
# Assays:
# Experiment in all cases: D-loop assay
# [1] = molecular target: RecA-E96D E97D (Escherichia coli) (UniProt P0A7G6); settings: 3 mM ATP, 10 mM MgCl2, pRS306 5 nM, higher D-loop activity than WT
# [2] = molecular target: RecA-K250N K251N (Escherichia coli) (UniProt P0A7G6); settings: 3 mM ATP, 10 mM MgCl2, pRS306 5 nM, lower D-loop activity than WT
# [3] = molecular target: RecA-WT (Escherichia coli) (UniProt P0A7G6); settings: 3 mM ATP, 10 mM MgCl2, pRS306 5 nM, strand exchange read-out
# [4] = molecular target: RecA-K250R K251R (Escherichia coli) (UniProt P0A7G6); settings: 3 mM ATP, 10 mM MgCl2, pRS306 5 nM, higher D-loop activity than WT
sequence,measurement,setting,value
AAAAGGCCTCTAGGTTCCTTTGTTACTTCTTCTGCCGCCTGCTTCAAACCGCTAACAATACCTGGGCCCACCACACCGTGTGCATTCGTA [D-loop 90-mer ssDNA],binding result,[1],binds
same,binding result,[2],binds more weakly
same,binding result,[3],binds
same,binding result,[4],binds
